doi:10.1101/2020.10.08.331397
Results are given in words; binding and its absence hold for the method and conditions named. In cells and extracts the contact can be indirect. Some results given as binding are weak or reduced against the parent protein; the word gives no strength. Tags and fused reporters may be left off the sequences shown.

What was measured:
Assay in all cases: pull-down
[1] = biological target: T1, Trx-His(6)-Δlinker-hSLAP2 (human SLAP2 residues 29-261), from Duet-His-Δlinker-hSLAP2-CBL (261) (human) (UniProt Q9H6Q3)
T1 sequence: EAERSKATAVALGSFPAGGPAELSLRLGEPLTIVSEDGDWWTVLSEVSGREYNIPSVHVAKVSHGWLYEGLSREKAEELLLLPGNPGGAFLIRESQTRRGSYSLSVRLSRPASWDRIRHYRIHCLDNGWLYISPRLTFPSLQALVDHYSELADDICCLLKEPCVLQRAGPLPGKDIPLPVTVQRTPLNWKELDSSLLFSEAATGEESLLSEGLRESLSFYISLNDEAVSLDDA

[2] = biological target: T2, Trx-His(6)-hSLAP2 (human SLAP2 residues 29-261), from Duet-His-hSLAP2-CBL (human) (UniProt Q9H6Q3)
T2 sequence: T1 sequence

[3] = biological target: T3, Trx-His(6)-Δlinker-hSLAP2 with residues 255-261 deleted, from Duet-His-Δlinker-hSLAP2-CBL (254) (human) (UniProt Q9H6Q3)
T3 sequence: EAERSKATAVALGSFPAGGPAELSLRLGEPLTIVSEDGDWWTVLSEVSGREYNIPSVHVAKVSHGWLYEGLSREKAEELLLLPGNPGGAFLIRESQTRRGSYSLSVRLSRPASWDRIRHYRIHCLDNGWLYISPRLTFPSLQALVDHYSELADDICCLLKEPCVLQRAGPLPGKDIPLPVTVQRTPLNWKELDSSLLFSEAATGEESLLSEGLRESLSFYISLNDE

binding [1]: binds
binding [2]: binds
binding [3]: binds
Substance: CBL (47-357), co-expressed from MCS2 of pETDuet-1 (from UniProt P22681 47-357) (domain or fragment)
